Reference: PMC3937224, “Convergence of Light and ABA Signaling on the ABI5 Promoter” (PLoS Genetics, 2014)
Construct, isoform or probe ends are uncertain for at least one entry. For some assays here: Negatives hold for the conditions tested. For some assays here: The comparison behind a weaker result is the experiment's own reference, which may not be listed here. For some assays here: Protein sequences can lack the tags named with them.

Assays:
[1] = molecular target: T1, GST-HY5 (Arabidopsis thaliana) (UniProt O24646); test: EMSA; conditions: increasing 6xHis-BBX21 (lanes 2 to 6) decreases HY5 binding; 10 mM Tris-HCl (pH not stated), 150 mM KCl, 1 mM DTT, 50 ng/ml poly(dI-dC), 2.5% glycerol, 0.05% NP-40, 0.5 ug/ml BSA; recombinant protein; residues 1-168; protein details: N-terminal GST (pGEX-6P-1, printed pEGX-6P-1); label: 5' biotin
T1 sequence (looked up): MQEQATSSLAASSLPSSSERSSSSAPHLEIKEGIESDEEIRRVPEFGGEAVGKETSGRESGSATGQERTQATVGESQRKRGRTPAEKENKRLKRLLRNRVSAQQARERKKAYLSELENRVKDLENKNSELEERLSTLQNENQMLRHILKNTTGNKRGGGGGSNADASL

GST = test: EMSA; conditions: 0.5 ug protein; 10 mM Tris-HCl (pH not stated), 150 mM KCl, 1 mM DTT, 50 ng/ml poly(dI-dC), 2.5% glycerol, 0.05% NP-40, 0.5 ug/ml BSA; recombinant protein; label: 5' biotin

“GATTCCGAACTTCCATTGGGAGTGCACGTGGACTATTCACTGCATAAGG (double strand) [ABI5 promoter probe]”: binds more weakly [1]; no binding (GST).
